According to publication doi:10.1101/2025.10.21.683800:
Like-named read-outs stand apart in the source and are kept apart here. These are yes or no findings as the source states them, for the method shown. For some of these results: In cells and extracts the contact can be indirect. Some results given as binding are weak or reduced against the parent protein; the word gives no strength.

Chains of the proteins cited; added tags and fusions are not shown. Lines headed by an entry give the natural chain unless they say otherwise; changes in a name come on top.
UniProt P49759: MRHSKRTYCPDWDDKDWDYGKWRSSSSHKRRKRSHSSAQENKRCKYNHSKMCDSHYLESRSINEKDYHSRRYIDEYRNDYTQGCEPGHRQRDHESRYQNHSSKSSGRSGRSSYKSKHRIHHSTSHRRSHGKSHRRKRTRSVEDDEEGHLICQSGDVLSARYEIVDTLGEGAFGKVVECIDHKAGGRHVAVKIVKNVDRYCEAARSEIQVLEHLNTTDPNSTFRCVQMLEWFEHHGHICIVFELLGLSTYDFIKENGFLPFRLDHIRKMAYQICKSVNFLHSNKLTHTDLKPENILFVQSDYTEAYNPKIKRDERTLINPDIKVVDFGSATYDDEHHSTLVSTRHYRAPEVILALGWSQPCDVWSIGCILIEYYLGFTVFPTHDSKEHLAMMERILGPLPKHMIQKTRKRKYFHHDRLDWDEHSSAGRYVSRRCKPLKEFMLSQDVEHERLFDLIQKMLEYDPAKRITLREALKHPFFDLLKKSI
UniProt P36873: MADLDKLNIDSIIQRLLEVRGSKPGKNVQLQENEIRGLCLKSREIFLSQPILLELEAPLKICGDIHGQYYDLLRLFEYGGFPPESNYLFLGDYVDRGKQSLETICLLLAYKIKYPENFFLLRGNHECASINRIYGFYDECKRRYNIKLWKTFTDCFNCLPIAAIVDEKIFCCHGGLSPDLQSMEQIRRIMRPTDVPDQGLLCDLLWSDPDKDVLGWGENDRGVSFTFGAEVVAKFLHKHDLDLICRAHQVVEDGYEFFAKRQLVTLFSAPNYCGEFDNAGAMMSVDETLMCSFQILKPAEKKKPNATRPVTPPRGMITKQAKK
UniProt Q12972: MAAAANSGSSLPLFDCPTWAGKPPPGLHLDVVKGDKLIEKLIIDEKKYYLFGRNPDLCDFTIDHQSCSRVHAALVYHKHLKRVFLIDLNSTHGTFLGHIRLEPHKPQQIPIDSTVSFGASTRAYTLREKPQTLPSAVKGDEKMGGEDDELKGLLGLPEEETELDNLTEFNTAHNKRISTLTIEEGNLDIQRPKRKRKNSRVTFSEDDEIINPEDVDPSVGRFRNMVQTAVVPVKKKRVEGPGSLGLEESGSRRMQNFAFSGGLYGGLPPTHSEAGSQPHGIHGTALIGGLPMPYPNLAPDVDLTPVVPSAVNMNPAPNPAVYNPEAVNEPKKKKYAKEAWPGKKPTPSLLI
UniProt P41236: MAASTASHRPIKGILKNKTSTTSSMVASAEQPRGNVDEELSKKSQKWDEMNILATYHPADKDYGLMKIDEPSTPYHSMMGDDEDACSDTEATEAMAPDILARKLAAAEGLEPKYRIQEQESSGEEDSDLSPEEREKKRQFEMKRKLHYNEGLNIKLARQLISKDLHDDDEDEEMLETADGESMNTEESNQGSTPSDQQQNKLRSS

Assays:
[1] = molecular target: FLAG-CLK1 S341A mutant (made in the kinase-dead K191R control) (human) (UniProt P49759); assay: co-IP
[2] = molecular target: PPP1CC, catalytic subunit of PP1, in HeLa lysate (human (endogenous in HeLa)) (UniProt P36873); assay: co-IP
[3] = molecular target: MBP-FLAG-PPP1CC-His (human) (UniProt P36873); assay: pull-down
[4] = molecular target: MBP-FLAG-PPP1CC-His (human) (UniProt P36873); assay: pull-down; remark: listed apart in the source
[5] = molecular target: MBP-FLAG-PPP1CC-His (human) (UniProt P36873); assay: pull-down; remark: listed apart in the source

binding [1] | binding [2] | binding [3] | binding [4] | binding [5] | Substance
binds | – | – | – | – | PPP1CC, catalytic subunit of PP1, in HeLa lysate (from UniProt P36873 1-323) (enzyme)
– | binds | – | – | – | PPP1R8 in HeLa lysate (from UniProt Q12972 1-351)
– | – | binds | binds | – | recombinant PPP1R2 (from UniProt P41236 1-205)
– | – | binds | binds | binds | recombinant PPP1R8 (from UniProt Q12972 1-351)
